Source: paper PMC5851652
These are yes or no findings as the source states them, for the method shown. In cells and extracts the contact can be indirect. These calls come from enrichment with a bait or labelling near it, and not all partners need be listed. Tags and fused reporters may be left off the sequences shown.

T1: OASL-myc (human) (UniProt Q15646)
T1 sequence: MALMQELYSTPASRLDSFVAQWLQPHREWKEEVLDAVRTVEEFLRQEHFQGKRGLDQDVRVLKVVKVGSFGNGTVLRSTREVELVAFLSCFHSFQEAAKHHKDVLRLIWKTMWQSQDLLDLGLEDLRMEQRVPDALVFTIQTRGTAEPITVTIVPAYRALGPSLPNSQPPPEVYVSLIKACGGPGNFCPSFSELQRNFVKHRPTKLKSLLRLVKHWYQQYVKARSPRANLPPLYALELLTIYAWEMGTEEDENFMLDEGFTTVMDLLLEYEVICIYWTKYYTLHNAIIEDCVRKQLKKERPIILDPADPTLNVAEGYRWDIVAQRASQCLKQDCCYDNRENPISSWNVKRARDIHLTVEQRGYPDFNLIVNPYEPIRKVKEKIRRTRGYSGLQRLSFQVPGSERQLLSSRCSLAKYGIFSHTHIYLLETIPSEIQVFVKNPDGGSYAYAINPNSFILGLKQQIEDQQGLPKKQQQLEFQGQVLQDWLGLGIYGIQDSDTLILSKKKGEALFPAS

B1: Putative ribosomal RNA methyltransferase NOP2 (protein, UniProt P46087 1-812)
chain: MGRKLDPTKEKRGPGRKARKQKGAETELVRFLPAVSDENSKRLSSRARKRAAKRRLGSVEAPKTNKSPEAKPLPGKLPKGISAGAVQTAGKKGPQSLFNAPRGKKRPAPGSDEEEEEEDSEEDGMVNHGDLWGSEDDADTVDDYGADSNSEDEEEGEALLPIERAARKQKAREAAAGIQWSEEETEDEEEEKEVTPESGPPKVEEADGGLQINVDEEPFVLPPAGEMEQDAQAPDLQRVHKRIQDIVGILRDFGAQREEGRSRSEYLNRLKKDLAIYYSYGDFLLGKLMDLFPLSELVEFLEANEVPRPVTLRTNTLKTRRRDLAQALINRGVNLDPLGKWSKTGLVVYDSSVPIGATPEYLAGHYMLQGASSMLPVMALAPQEHERILDMCCAPGGKTSYMAQLMKNTGVILANDANAERLKSVVGNLHRLGVTNTIISHYDGRQFPKVVGGFDRVLLDAPCSGTGVISKDPAVKTNKDEKDILRCAHLQKELLLSAIDSVNATSKTGGYLVYCTCSITVEENEWVVDYALKKRNVRLVPTGLDFGQEGFTRFRERRFHPSLRSTRRFYPHTHNMDGFFIAKFKKFSNSIPQSQTGNSETATPTNVDLPQVIPKSENSSQPAKKAKGAAKTKQQLQKQQHPKKASFQKLNGISKGADSELSTVPSVTKTQASSSFQDSSQPAGKAEGIREPKVTGKLKQRSPKLQSSKKVAFLRQNAPPKGTDTQTPAVLSPSKTQATLKPKDHHQPLGRAKGVEKQQLPEQPFEKAAFQKQNDTPKGPQPPTVSPIRSSRPPPAKRKKSQSRGNSQLLLS
B2: Probable rRNA-processing protein EBP2 (protein, UniProt Q99848 1-306)
chain: MDTPPLSDSESESDESLVTDRELQDAFSRGLLKPGLNVVLEGPKKAVNDVNGLKQCLAEFKRDLEWVERLDVTLGPVPEIGGSEAPAPQNKDQKAVDPEDDFQREMSFYRQAQAAVLAVLPRLHQLKVPTKRPTDYFAEMAKSDLQMQKIRQKLQTKQAAMERSEKAKQLRALRKYGKKVQTEVLQKRQQEKAHMMNAIKKYQKGFSDKLDFLEGDQKPLAQRKKAGAKGQQMRKGPSAKRRYKNQKFGFGGKKKGSKWNTRESYDDVSSFRAKTAHGRGLKRPGKKGSNKRPGKRTREKMKNRTH
B3: Ribosome production factor 2 homolog (protein, UniProt Q9H7B2 1-306)
chain: MDTLDRVVKPKTKRAKRFLEKREPKLNENIKNAMLIKGGNANATVTKVLKDVYALKKPYGVLYKKKNITRPFEDQTSLEFFSKKSDCSLFMFGSHNKKRPNNLVIGRMYDYHVLDMIELGIENFVSLKDIKNSKCPEGTKPMLIFAGDDFDVTEDYRRLKSLLIDFFRGPTVSNIRLAGLEYVLHFTALNGKIYFRSYKLLLKKSGCRTPRIELEEMGPSLDLVLRRTHLASDDLYKLSMKMPKALKPKKKKNISHDTFGTTYGRIHMQKQDLSKLQTRKMKGLKKRPAERITEDHEKKSKRIKKN
B4: RNA-binding protein 34 (protein, UniProt P42696 1-430)
chain: MALEGMSKRKRKRSVQEGENPDDGVRGSPPEDYRLGQVASSLFRGEHHSRGGTGRLASLFSSLEPQIQPVYVPVPKQTIKKTKRNEEEESTSQIERPLSQEPAKKVKAKKKHTNAEKKLADRESALASADLEEEIHQKQGQKRKNSQPGVKVADRKILDDTEDTVVSQRKKIQINQEEERLKNERTVFVGNLPVTCNKKKLKSFFKEYGQIESVRFRSLIPAEGTLSKKLAAIKRKIHPDQKNINAYVVFKEESAATQALKRNGAQIADGFRIRVDLASETSSRDKRSVFVGNLPYKVEESAIEKHFLDCGSIMAVRIVRDKMTGIGKGFGYVLFENTDSVHLALKLNNSELMGRKLRVMRSVNKEKFKQQNSNPRLKNVSKPKQGLNFTSKTAEGHPKSLFIGEKAVLLKTKKKGQKKSGRPKKQRKQK
B5: RNA-binding protein 28 (protein, UniProt Q9NW13 1-759)
chain: MAGLTLFVGRLPPSARSEQLEELFSQVGPVKQCFVVTEKGSKACRGFGYVTFSMLEDVQRALKEITTFEGCKINVTVAKKKLRNKTKEKGKNENSECPKKEPKAKKAKVADKKARLIIRNLSFKCSEDDLKTVFAQFGAVLEVNIPRKPDGKMRGFGFVQFKNLLEAGKALKGMNMKEIKGRTVAVDWAVAKDKYKDTQSVSAIGEEKSHESKHQESVKKKGREEEDMEEEENDDDDDDDDEEDGVFDDEDEEEENIESKVTKPVQIQKRAVKRPAPAKSSDHSEEDSDLEESDSIDDGEELAQSDTSTEEQEDKAVQVSNKKKRKLPSDVNEGKTVFIRNLSFDSEEEELGELLQQFGELKYVRIVLHPDTEHSKGCAFAQFMTQEAAQKCLLAASPENEAGGLKLDGRQLKVDLAVTRDEAAKLQTTKVKKPTGTRNLYLAREGLIRAGTKAAEGVSAADMAKRERFELLKHQKLKDQNIFVSRTRLCLHNLPKAVDDKQLRKLLLSATSGEKGVRIKECRVMRDLKGVHGNMKGQSLGYAFAEFQEHEHALKALRLINNNPEIFGPLKRPIVEFSLEDRRKLKMKELRIQRSLQKMRSKPATGEPQKGQPEPAKDQQQKAAQHHTEEQSKVPPEQKRKAGSTSWTGFQTKAEVEQVELPDGKKRRKVLALPSHRGPKIRLRDKGKVKPVHPKKPKPQINQWKQEKQQLSSEQVSRKKAKGNKTETRFNQLVEQYKQKLLGPSKGAPLAKRSKWFDS

molecular target: T1, OASL-myc (human); assay: affinity purification with mass spectrometry; q-AP-MS: SILAC-labelled HeLa S3 cells transfected with the myc-tagged bait or LacZ-myc (forward and crossover); NP-40 lysis buffer with benzonase, 1 h at 4°C; anti-c-myc microbeads; LC-MS/MS

Row | binding | Binder
1 | binds | B1
2 | binds | B2
3 | binds | B3
4 | binds | B4
5 | binds | B5
